# From patent US20090304687A1, “METHODS OF USING CD40 BINDING AGENTS” (Seattle Genetics , Inc., priority 2005, published 2009)
# Protein sequences, listed by entry. Tags and fused reporters are not part of them. Residues count along the entry.
# UniProt P25942, residues 21-193: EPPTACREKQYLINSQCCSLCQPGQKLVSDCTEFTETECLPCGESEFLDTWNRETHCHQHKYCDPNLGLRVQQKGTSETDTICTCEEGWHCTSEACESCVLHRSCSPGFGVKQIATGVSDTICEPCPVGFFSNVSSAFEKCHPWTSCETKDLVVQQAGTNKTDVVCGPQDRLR
# Where a chain is given by its changes, count along the chain named. Results are given in words; binding and its absence hold for the method and conditions named. Some binding calls cover weakened binding; strength is not graded here.
# B1: hu sgn-14 (antibody, V domains shown)
# VH: EVQLVESGGGLVQPGGSLRLSCAASGYSFTGYYIHWVRQAPGKGLEWVARVIPNNGGTSYNQKFKGRFTLSVDNSKNTAYLQMNSLRAEDTAVYYCAREGIYWWGQGTLVTVS
# VL: DIQMTQSPSSLSASVGDRVTITCRSSQSLVHSNGNTFLHWYQQKPGKAPKLLIYTVSNRFSGVPSRFSGSGSGTDFTLTISSLQPEDFATYYCSQTTHVPWTFGQGTKVEIKR
# B2: hu sgn-18 (antibody, V domains shown)
# VH: B1 VH with F68A
# VL: B1 VL with Y92F
# B3: hu sgn-22 (antibody, V domains shown)
# VH: B1 VH with N55A
# VL: B1 VL
# B4: hu sgn-23 (antibody, V domains shown)
# VH: B1 VH with N55Q
# VL: B1 VL
# B5: hu sgn-26 (antibody, V domains shown)
# VH: B1 VH with N55A
# VL: B1 VL with Y92F
# B6: hu sgn-27 (antibody, V domains shown)
# VH: B1 VH with N55Q
# VL: B1 VL with Y92F
# B7: hu sgn-19 (antibody, V domains shown)
# VH: B1 VH
# VL: B1 VL with Y92F
# Target: CD40 immobilized on microassay plates (UniProt P25942 21-193, limits assumed)
# Experiment: serially diluted antibody on CD40 immobilized on microassay plates
# Protocol: Antibodies constructed using these variant light and heavy chain variable domains were analyzed for binding activity. Each antibody was diluted to equivalent concentrations, and then serially diluted. The diluted antibodies were assayed for binding to CD40 immobilized on microassay plates.
row,Binder,binding
1,B1,binds
2,B2,binds
3,B3,binds
4,B4,binds
5,B5,binds
6,B6,binds
7,B7,binds
